This is one part of the list.
How the values were obtained:
Test in all cases: log2 fold change, soluble protein after heating vs DMSO (PISA); higher = thermal stabilisation; K562 lysate, 10 uM; active = over 0.2 and 3.5 SD of the protein, either way, in both replicates (recomputed)
[1] = compound: C1=CC=C(C=C1)[C@H](COC2=CC3=C(C=C2)NC(=O)N3)NC(=O)C4=CC=CN(C4=O)CC5=CC(=C(C=C5)F)F
In short: (§1)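 Quantification was by TMTpro 16plex LC-MS/MS with equalised channel sums, applied to the supernatant after 21,000xg for 90 min. Samples were crude K562 extract at 1 mg/mL protein in PBS pH 7.4 with 1 mM MgCl2, treated with 10 μM compound for 30 min, heated for 3 min across 48°C-58°C, pooled and brought to 0.5% NP-40 at 4°C. Values are log-two fold changes in thermal stability relative to solvent controls, from duplicates.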

Sequences of proteins named here, by UniProt entry; tags and fusion partners are left off. A change or cut given only in a name is not applied to a line headed by its entry.
UniProt Q96C86: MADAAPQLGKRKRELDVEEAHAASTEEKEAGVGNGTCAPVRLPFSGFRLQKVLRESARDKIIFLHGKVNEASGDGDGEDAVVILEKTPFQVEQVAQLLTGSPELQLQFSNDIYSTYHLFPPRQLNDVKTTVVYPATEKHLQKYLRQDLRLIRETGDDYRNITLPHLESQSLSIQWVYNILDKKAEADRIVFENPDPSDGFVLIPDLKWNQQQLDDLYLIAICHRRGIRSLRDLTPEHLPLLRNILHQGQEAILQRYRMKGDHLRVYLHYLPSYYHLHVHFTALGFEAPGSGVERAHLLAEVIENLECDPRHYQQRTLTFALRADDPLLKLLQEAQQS
UniProt O00148, whole entry, looked up: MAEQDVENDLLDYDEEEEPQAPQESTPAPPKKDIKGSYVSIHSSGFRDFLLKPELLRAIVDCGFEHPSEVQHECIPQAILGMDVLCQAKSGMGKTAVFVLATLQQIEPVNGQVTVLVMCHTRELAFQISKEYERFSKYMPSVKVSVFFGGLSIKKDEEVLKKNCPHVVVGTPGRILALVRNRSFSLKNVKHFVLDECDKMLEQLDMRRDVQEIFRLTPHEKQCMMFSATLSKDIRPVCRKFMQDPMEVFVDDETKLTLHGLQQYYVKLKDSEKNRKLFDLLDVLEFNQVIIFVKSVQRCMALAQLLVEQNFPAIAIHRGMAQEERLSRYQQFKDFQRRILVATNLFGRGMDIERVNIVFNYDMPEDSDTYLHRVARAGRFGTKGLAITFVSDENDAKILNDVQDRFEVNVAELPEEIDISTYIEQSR
UniProt P30046: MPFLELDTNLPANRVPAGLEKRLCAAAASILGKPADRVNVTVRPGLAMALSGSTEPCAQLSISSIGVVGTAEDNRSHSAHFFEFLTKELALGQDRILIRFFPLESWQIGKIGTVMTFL
UniProt Q5TDH0: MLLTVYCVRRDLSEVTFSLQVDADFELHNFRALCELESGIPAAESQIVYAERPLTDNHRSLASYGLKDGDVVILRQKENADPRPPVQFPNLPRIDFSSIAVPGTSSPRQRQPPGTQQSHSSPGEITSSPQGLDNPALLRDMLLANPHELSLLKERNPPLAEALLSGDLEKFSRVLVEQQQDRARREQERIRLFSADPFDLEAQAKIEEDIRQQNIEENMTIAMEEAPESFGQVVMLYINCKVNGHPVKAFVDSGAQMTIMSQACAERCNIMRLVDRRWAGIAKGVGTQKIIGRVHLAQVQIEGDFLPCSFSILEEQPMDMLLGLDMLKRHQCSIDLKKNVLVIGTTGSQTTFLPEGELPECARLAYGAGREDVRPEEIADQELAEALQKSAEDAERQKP
UniProt Q16850: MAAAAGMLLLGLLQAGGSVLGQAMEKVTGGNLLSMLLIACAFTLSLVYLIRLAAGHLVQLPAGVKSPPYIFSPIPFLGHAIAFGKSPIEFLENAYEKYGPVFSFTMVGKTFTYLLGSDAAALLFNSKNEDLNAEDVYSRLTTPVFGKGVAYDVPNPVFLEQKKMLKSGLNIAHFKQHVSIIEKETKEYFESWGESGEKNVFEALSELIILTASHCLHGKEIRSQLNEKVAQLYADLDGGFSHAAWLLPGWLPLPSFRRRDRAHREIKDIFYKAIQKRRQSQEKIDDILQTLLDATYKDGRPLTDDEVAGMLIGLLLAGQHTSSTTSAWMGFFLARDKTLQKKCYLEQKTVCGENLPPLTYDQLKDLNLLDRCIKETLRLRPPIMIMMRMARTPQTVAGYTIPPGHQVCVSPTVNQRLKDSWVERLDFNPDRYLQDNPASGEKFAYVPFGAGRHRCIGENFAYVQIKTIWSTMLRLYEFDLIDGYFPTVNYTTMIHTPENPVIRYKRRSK
UniProt Q9Y6V7: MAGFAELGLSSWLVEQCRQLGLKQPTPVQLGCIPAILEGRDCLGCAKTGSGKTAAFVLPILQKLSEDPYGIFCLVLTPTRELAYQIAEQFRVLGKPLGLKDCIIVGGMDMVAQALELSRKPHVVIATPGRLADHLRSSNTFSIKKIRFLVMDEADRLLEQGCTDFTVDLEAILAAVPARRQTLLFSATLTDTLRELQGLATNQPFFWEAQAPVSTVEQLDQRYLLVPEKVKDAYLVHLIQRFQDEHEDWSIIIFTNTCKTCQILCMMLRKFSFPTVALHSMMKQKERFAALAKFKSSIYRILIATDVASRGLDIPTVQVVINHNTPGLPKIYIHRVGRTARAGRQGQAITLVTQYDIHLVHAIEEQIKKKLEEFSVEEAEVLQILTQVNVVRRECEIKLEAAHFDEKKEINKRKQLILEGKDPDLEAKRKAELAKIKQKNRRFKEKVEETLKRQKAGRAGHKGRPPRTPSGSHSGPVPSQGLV
UniProt Q9NR30: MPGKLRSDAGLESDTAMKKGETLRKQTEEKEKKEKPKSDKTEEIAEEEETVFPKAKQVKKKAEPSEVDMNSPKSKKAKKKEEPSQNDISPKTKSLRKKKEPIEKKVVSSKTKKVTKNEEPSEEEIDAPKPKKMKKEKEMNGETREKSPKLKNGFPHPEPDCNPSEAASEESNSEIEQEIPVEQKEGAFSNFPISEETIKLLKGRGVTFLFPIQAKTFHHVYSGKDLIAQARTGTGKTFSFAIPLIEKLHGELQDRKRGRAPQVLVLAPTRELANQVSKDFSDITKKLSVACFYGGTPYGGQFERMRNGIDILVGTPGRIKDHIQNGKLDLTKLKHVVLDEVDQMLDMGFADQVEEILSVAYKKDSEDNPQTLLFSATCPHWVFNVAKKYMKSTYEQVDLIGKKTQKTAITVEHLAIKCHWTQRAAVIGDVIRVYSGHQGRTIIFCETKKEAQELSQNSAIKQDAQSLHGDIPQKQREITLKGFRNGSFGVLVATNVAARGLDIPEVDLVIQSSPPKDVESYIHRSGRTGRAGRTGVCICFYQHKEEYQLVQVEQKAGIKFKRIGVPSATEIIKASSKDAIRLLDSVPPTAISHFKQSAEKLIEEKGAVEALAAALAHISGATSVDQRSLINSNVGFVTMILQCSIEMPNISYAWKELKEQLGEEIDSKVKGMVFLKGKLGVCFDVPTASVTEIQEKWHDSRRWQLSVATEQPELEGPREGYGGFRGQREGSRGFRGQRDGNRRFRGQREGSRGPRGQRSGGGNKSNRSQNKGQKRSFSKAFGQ
UniProt Q7L014: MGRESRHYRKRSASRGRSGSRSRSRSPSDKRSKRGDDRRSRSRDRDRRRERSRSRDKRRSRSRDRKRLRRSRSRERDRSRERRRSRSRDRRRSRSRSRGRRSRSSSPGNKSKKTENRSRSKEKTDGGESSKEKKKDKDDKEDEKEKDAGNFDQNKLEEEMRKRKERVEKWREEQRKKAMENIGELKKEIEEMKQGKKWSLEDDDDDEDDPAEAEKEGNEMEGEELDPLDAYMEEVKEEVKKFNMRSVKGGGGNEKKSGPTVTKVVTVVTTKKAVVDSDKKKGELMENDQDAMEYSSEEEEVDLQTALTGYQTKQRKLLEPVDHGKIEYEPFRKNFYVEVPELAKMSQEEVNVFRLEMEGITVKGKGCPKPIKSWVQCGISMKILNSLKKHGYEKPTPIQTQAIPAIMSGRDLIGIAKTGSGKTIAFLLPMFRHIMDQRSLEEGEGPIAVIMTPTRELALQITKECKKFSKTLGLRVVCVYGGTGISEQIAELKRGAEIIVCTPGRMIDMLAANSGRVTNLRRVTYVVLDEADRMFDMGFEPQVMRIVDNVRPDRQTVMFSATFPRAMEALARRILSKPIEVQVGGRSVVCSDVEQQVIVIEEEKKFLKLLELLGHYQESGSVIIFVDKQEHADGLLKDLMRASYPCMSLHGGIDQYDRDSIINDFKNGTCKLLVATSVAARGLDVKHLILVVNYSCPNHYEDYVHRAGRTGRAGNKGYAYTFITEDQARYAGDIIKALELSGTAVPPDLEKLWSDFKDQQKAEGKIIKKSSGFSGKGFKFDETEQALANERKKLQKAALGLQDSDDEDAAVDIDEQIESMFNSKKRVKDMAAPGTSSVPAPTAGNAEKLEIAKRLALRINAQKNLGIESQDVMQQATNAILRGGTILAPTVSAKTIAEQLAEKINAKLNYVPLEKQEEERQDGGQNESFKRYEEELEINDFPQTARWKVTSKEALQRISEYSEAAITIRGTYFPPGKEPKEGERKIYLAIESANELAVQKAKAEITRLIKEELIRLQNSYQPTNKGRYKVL
UniProt O95865: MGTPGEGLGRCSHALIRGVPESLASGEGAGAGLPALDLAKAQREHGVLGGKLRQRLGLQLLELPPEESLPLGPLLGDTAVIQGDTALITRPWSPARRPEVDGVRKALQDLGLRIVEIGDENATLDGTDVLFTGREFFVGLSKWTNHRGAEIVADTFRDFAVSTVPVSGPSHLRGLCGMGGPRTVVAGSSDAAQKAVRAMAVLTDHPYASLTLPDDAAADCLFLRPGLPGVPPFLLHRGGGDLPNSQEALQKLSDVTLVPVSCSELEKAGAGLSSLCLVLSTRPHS
UniProt Q13561, whole entry, looked up: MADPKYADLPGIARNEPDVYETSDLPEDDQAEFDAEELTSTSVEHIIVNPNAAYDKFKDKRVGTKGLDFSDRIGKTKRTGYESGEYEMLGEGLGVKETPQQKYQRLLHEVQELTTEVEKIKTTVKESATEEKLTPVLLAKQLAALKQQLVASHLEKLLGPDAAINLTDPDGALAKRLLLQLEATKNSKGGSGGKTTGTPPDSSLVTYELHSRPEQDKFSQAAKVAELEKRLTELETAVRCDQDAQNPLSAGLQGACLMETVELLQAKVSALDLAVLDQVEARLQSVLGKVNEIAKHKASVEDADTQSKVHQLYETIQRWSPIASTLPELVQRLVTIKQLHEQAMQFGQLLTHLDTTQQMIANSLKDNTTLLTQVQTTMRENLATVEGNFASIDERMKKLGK
UniProt Q9BWK5: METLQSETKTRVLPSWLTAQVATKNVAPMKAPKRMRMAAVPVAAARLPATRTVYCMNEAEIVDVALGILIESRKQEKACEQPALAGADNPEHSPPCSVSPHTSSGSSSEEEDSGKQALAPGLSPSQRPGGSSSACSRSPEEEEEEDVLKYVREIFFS
UniProt Q96SD1, whole entry, looked up: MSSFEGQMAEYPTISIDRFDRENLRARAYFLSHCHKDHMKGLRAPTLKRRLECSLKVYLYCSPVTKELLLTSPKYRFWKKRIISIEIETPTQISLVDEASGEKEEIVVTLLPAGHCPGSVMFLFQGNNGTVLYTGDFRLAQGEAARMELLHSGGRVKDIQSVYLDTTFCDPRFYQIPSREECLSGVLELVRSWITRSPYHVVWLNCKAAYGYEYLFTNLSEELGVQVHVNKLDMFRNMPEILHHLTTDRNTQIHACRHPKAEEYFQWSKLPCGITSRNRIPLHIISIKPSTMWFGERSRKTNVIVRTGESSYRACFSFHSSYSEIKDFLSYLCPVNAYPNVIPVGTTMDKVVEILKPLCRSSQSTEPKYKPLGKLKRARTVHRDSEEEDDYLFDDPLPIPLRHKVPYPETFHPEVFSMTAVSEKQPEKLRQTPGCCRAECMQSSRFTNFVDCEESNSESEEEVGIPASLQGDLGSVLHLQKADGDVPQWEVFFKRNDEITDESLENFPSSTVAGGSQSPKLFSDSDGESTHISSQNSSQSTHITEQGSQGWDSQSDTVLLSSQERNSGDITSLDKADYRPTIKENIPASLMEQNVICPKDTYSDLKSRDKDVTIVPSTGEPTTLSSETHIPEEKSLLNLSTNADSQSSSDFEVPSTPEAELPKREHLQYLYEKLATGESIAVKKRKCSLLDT

[2] = compound: CC1=C(SC2=C1C(=N[C@H](C3=NN=C(N32)C)CC(=O)N)C4=CC=C(C=C4)Cl)C
In short: as §1

[3] = compound: CC1=C2C(=CC=C1)N=C(N(C2=O)C3=CC=CC=C3C)CN4C=NC5=C(N=CN=C54)N
In short: as §1

[4] = compound: Cc1sc2c(c1C)C(c1ccc(Cl)cc1)=N[C@@H](CC(=O)OC(C)(C)C)c1nnc(C)n1-2
In short: as §1

[5] = compound: c1ccc([C@@H]2C[C@H]2NC2CCNCC2)cc1
In short: as §1

Measured: log2 fold change

DCPS (UniProt Q96C86)
inactive: [1] 0.02 | [2] 0.008 | [3] -0.009 | [4] 0.008 | [5] 0.02

DDX39A (UniProt O00148)
inactive: [1] -0.022 | [2] -0.018 | [3] 0.02 | [4] -0.016 | [5] 0

DDT (UniProt P30046)
inactive: [1] 0.006 | [2] -0.056 | [3] -0.013 | [4] 0.019 | [5] -0.052

DDI2 isoform 3 (UniProt Q5TDH0)
inactive: [1] 0.018 | [2] -0.012 | [3] 0.002 | [4] -0.023 | [5] 0.021

CYP51A1 (UniProt Q16850)
inactive: [1] 0.028 | [2] -0.105 | [3] -0.058 | [4] -0.028 | [5] -0.007

DDX49 (UniProt Q9Y6V7)
inactive: [1] -0.022 | [2] -0.034 | [3] -0.03 | [4] -0.021 | [5] 0.025

Two records drawn at random from the list so far:
DDI2 isoform 3 (UniProt Q5TDH0)
inactive: [1] 0.018 | [2] -0.012 | [3] 0.002 | [4] -0.023 | [5] 0.021

DDT (UniProt P30046)
inactive: [1] 0.006 | [2] -0.056 | [3] -0.013 | [4] 0.019 | [5] -0.052

Next entries.

DDX21 (UniProt Q9NR30)
inactive: [1] 0.018 | [2] 0.03 | [3] 0.033 | [4] -0.017 | [5] 0.038

DDX46 (UniProt Q7L014)
inactive: [1] 0.018 | [2] -0.018 | [3] 0.014 | [4] 0.021 | [5] 0.012

DDAH2 (UniProt O95865)
inactive: [1] 0.009 | [2] 0.01 | [3] 0.028 | [4] 0.021 | [5] 0.052

DCTN2 (UniProt Q13561)
inactive: [1] -0.042 | [2] 0.029 | [3] -0.196 | [4] 0 | [5] 0.025

CYREN isoform 4 (UniProt Q9BWK5)
inactive: [4] 0.045 | [5] -0.089

DDX39B (UniProt F6R6M7)
inactive: [5] 0.001

DCLRE1C (UniProt Q96SD1)
inactive: [5] -0.033
